Data published in PMC5996148.
This is one part of the list.

Tests used:
Assay in all cases: protein microarray (ProtoArray v5.0), streptavidin-Alexa Fluor 647
Settings in all cases: 3'-biotin; 20 mM Tris (pH 7.5), 5 mM MgCl2, 100 mM KCl, 0.1% Tween-20, A/T-rich and random oligonucleotide blockers; temperature not stated; high values mean tight binding
TMEM182 (human) = system: TMEM182 (human)
TMEM185A (human) = system: TMEM185A (human)
TMEM186 (human) = system: TMEM186 (human)
TMEM19 (human) = system: TMEM19 (human)
TMEM25 (human) = system: TMEM25 (human)
TMEM27 (human) = system: TMEM27 (human)
TMEM4 (human) = system: TMEM4 (human)
TMEM41A (human) = system: TMEM41A (human)
TMEM43 (human) = system: TMEM43 (human)
TMEM53 (human) = system: TMEM53 (human)
TMEM59 (human) = system: TMEM59 (human)
TMEM68 (human) = system: TMEM68 (human)
TMEM70 (human) = system: TMEM70 (human)
TMEM80 (human) = system: TMEM80 (human)
TMEM92 (human) = system: TMEM92 (human)
TMEM98 (human) = system: TMEM98 (human)
TMSB10 (human) = system: TMSB10 (human)
TMSL8 (human) = system: TMSL8 (human)
TMUB1 (human) = system: TMUB1 (human)
TNF (human) = system: TNF (human)

Sequence: GGGAGGCTGAGGCAGG [G4-1 biotinylated (PQS2)]
- binding signal (TMEM182 (human)): -0.352 z-score
- binding signal (TMEM185A (human)): -0.351 z-score
- binding signal (TMEM186 (human)): -0.337 z-score
- binding signal (TMEM19 (human)): -0.353 z-score
- binding signal (TMEM25 (human)): -0.348 z-score
- binding signal (TMEM27 (human)): -0.344 z-score
- binding signal (TMEM4 (human)): -0.273 z-score
- binding signal (TMEM41A (human)): -0.332 z-score
- binding signal (TMEM43 (human)): -0.327 z-score
- binding signal (TMEM53 (human)): -0.317 z-score
- binding signal (TMEM59 (human)): -0.281 z-score
- binding signal (TMEM68 (human)): -0.323 z-score
- binding signal (TMEM70 (human)): -0.253 z-score
- binding signal (TMEM80 (human)): -0.281 z-score
- binding signal (TMEM92 (human)): -0.288 z-score
- binding signal (TMEM98 (human)): -0.338 z-score
- binding signal (TMSB10 (human)): -0.231 z-score
- binding signal (TMSL8 (human)): -0.325 z-score
- binding signal (TMUB1 (human)): -0.298 z-score
- binding signal (TNF (human)): -0.271 z-score
